According to patent US7005419:
These are yes or no findings as the source states them, for the method shown. Binding seen in cells or lysates may run through a third protein. Some entries that bind do so weakly or less than the wild type.

Protein sequences, listed by entry. Tags and fused reporters are not part of them. Lines headed by an entry give the natural chain unless they say otherwise; changes in a name come on top.
UniProt P06493: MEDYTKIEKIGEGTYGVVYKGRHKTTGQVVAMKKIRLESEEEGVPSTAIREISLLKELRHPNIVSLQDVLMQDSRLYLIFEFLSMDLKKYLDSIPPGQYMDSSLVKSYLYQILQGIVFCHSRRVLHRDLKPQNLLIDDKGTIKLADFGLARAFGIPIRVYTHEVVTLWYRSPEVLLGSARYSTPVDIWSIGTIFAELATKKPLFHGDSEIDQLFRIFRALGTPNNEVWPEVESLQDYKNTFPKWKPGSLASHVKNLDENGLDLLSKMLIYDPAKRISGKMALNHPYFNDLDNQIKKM
UniProt P24522: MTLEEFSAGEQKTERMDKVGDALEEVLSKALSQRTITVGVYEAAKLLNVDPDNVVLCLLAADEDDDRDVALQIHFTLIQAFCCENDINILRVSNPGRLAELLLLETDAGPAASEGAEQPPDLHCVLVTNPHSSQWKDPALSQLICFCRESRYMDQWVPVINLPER

How the values were obtained:
[1] = target: Cdc2 (human) (UniProt P06493); assay: GST pull-down from RKO cell lysate, anti-Cdc2 immunoblot
[2] = target: Cdc2 (human) (UniProt P06493); assay: co-immunoprecipitation from transfected cells, immunoblot

binding [1]: binds | binding [2]: binds
Substance: glutathione-S-transferase (GST)/GADD45 fusion protein (from UniProt P24522 2-165)
